Data as given in PubChem BioAssay AID1259259 (Sanger Institute, 2017)
Shown is a random part of 794 reagents. In the full data, 9 (1.1%) are marked active. 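Calls rest on knock-down alone, not drug synergy; viability values seem capped at 1.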 Not all columns of the deposit are shown. Not stated in the record: the amount of reagent, the time to read-out.

Test: 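Kinome siRNA search for kinases essential alone or combined with trametinib, cetuximab or BYL719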 (primary screen)
Cells: SW1463 human colorectal cancer cells
Reagent: siRNA pool against human genes
Challenge: DMSO vehicle, or one anchor drug: BYL719 at 1 µM, cetuximab at 5 µg/ml, or trametinib at 10 nM
Measurement: 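Viability as fraction of control pool 2 (non-targeting), replicate mean; knock-down robust z-score without any drug; synergy score averaged for each anchor drug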
Scale: robust z-score, knock-down alone: higher = more viable cells after knock-down
Active means: 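a robust z-score under -3 for knock-down with no drug marks the gene as essential, meaning viability loss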
Meaning of the calls: active = essential: viability loss from knock-down alone; inactive = no change from knock-down alone

With knock-down of MUSK the results were robust z-score, knock-down alone -1.11; inactive. For DIS3 the deposit lists robust z-score, knock-down alone 1.13; inactive. Depletion of TSSK1B came out at: robust z-score, knock-down alone 0.219; inactive. RIOK2 showed robust z-score, knock-down alone 0.911; inactive. After knock-down of RPS6KA5 the results were robust z-score, knock-down alone -0.386; inactive. PTK2B gave robust z-score, knock-down alone -0.0569; inactive.

Reformatted: 2 of the entries above.
MUSK
- robust z-score, knock-down alone: -1.11
- Call: inactive

DIS3
- robust z-score, knock-down alone: 1.13
- Call: inactive

Additional records follow.
After knock-down of MPP2, the screen gave robust z-score, knock-down alone -0.139; inactive. Silencing of NME7 came out at: robust z-score, knock-down alone 1.13; inactive. Knock-down of EFNA3 resulted in: robust z-score, knock-down alone -0.27; inactive. After knock-down of JAK3, the screen gave robust z-score, knock-down alone 1.13; inactive. Depletion of NTRK2 came out at: robust z-score, knock-down alone 1.13; inactive. After knock-down of RSKR, the record shows robust z-score, knock-down alone -0.552; inactive.
